{"sequences": {"note": "Chains of the proteins cited; added tags and fusions are not shown.", "UniProt P30191, whole entry, looked up": "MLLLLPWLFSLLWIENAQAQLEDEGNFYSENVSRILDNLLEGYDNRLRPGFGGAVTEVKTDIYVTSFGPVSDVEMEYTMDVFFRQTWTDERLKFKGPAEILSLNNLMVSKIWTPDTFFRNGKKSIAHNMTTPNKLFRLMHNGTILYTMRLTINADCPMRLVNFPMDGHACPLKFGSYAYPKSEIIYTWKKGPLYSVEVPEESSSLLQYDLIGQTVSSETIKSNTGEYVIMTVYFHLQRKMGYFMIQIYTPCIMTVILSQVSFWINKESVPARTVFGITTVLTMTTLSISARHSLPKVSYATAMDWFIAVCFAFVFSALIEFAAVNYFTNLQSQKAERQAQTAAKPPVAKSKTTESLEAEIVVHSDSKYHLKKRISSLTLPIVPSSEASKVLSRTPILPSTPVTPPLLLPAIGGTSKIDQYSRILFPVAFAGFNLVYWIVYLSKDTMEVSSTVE"}, "source": "PubChem BioAssay (EPA / NIEHS)", "note": "Inconclusive results, whose numbers are uncertain, are shown with a selection of clear calls. Potencies of inconclusive entries are doubtful fits and often do not repeat. Active and inactive are the calls of the source. The calls were made as follows: active = hit-call score of the fitted dose curve at least 0.9, where 1 is the maximum; inconclusive = response in the unintended direction; inactive = score below 0.9.", "data": [{"target": "rat Gamma-Aminobutyric Acid Type A Receptor BDZ, alpha 6 site (GABARa6), Gabra6 (gene 29708) (UniProt P30191)", "experiment": "NVS_LGIC_rGABARa6: NovaScreen (NVS) Ligand-Gated Ion Channel Assay for rat Gamma-Aminobutyric Acid Type A Receptor BDZ, alpha 6 site (GABARa6) (AID 2283339)", "description": "NVS_LGIC_rGABARa6 is a biochemical, single-readout assay that uses extracted gene-proteins from Rat cerebellar membranes in a tissue-based cell-free assay. Measurements were taken 1 hour after chemical dosing in a 48-well plate.NVS_LGIC_rGABARa6 is one of one assay component(s) measured or calculated from the NVS_LGIC_rGABARa6 assay. It is designed to make measurements of radioligand binding, a form of binding reporter, as detected with scintillation counting signals by Filter-based radiodetection technology.Data from the assay component NVS_LGIC_rGABARa6 was analyzed into 1 assay endpoint. This assay endpoint, NVS_LGIC_rGABARa6, was analyzed in the positive analysis fitting direction relative to DMSO as the negative control and baseline of activity. Using a type of binding reporter, loss-of-signal activity can be used to understand changes in the binding as they relate to the gene Gabra6. Furthermore, this assay endpoint can be referred to as a primary readout, because the performed assay has only produced 1 assay endpoint. To generalize the intended target to other relatable targets, this assay endpoint is annotated to the ion channel intended target family, where the subfamily is ligand-gated ion channel.\nBinding assays used specific radioligands (tritiated, iodinated) with non-radioactive competitive displacement ligands in agonist or antagonist protocols (as indicated) and various reference compounds and inhibitors to titrate specific binding to receptors and transporters. Most enzyme assays (CYPs, kinases, phosphatases, proteases, HDACs) used recombinant protein and specific substrates (fluorescence mostly, some colorimetric and radioactive) and inhibitors, followed by a biochemical separation of substrate and product. All assays for the biochemical HTS were initially run in duplicate at a single concentration (10 uM for CYP450 assays and 25 uM for all others). Assay-chemical combinations meeting a pre-defined threshold (e.g., 30% inhibition and other criteria defined below) were then run in singleton concentration-response format with maximum concentration of 20 uM for CYPs and 50 uM for all others. Each assay was run with positive and negative controls, and concurrent controls on every plate. The follow-up (secondary) screen tested active chemical-pairs in concentration series, as well as a few additional assays not tested in the primary screen, some selected negative inactives, and several cases re-run in the concentration series for confirmatory purposes.", "values": [{"smiles": "CCOc1ccc2[nH]cc(C(=O)NCc3ccccc3)c(=O)c2n1", "AC50": "active: 215 nM"}, {"smiles": "NC(=O)N1c2ccccc2C=Cc2ccccc21", "outcome": "inactive"}, {"smiles": "COC(=O)CSc1cc(N=c2sc(=O)n3n2CCCC3)c(F)cc1Cl", "AC50": "inconclusive: 449 nM"}, {"smiles": "CCN(CC)c1cccc(C)c1", "AC50": "inconclusive: 177 nM"}, {"smiles": "COc1ccc2nc(N)sc2c1", "AC50": "inconclusive: 5780 nM"}, {"smiles": "c1cc(-c2ccncc2)ccn1", "AC50": "inconclusive: 70.2 nM"}, {"smiles": "CCCC(CCC)C(=O)O", "outcome": "inactive"}, {"smiles": "CCn1nc(C)c2c1C(=O)NCC(c1ccc(O)cc1)=N2", "outcome": "inactive"}, {"smiles": "CNCc1ccc(NC(=O)c2c[nH]c3c2C(=O)CCC3)cc1", "AC50": "inconclusive: 118 nM"}, {"smiles": "CCN(CC)c1ccc(N=Nc2ccccc2)cc1", "AC50": "inconclusive: 255 nM"}, {"smiles": "CCCCCCCCCCCCc1ccccc1S(=O)(=O)O", "AC50": "inconclusive: 25000 nM"}, {"smiles": "Cc1ccc(C(C)C)c(O)c1", "outcome": "inactive"}, {"smiles": "Nc1cc2c3c(c1)C(c1ccccc1)=N[C@@H](NC(=O)c1cccnc1)C(=O)N3CC2", "AC50": "inconclusive: 80.8 nM"}]}]}
